# The list is a part of this screen's results and no random one: it gathers tests that were run many times, whatever their T/C, doses with no T/C, and many T/C values between a quarter and a half above the control. Other doses and runs of a compound stand elsewhere. T/C gives the treated animals as a percentage of the vehicle group. Some doses have a count of surviving animals in place of a T/C: the source holds a T/C of zero for them, seemingly a mark for toxic or unscored doses. Some survivor counts are full or nearly so, which does not show that the dose was tolerated: survival well below the control is almost never listed, so the zero probably covers shortened survival too. Survivors were counted at the toxicity check, usually on the fifth day, unless a day is given; later deaths do not show. Schedules are NCI's codes, taken here to give the interval after Q, in days (D) or hours (H), and the number of doses after X. Some doses were run more than once; the values are given in rising order. Some schedules carry Z or #; the key to these is not given. For survival time, this PubChem deposit counts one and a half times the control or more as active, and values a quarter to a half above the control carry no call in these data; other NCI protocols may use other cut-offs. Brackets with × count equal records among those shown. Some T/C values are followed by the survivors on the day toxicity was checked, most often the fifth; where none is given, no animal had died by that day.
# Tested on: P388 leukemia ip, CD2F1 mice, survival T/C
# Assay: NCI In Vivo Anticancer Drug Screen. Data for tumor model P388 Leukemia (intraperitoneal) in CD2F1 (CDF1) mice
# Settings: T/C endpoint: median survival time, higher T/C = longer survival
# [1] = dose: 100.0 mg/kg/injection, schedule: Q01DX005 (ip), vehicle: Klucel (hydroxypropylcellulose) (HPC)
# [2] = dose: 200.0 mg/kg/injection, schedule: Q01DX005 (ip), vehicle: Klucel (hydroxypropylcellulose) (HPC)
# [3] = dose: 25.0 mg/kg/injection, schedule: Q01DX005 (ip), vehicle: saline with Tween-80
# [4] = dose: 50.0 mg/kg/injection, schedule: Q01DX005 (ip), vehicle: saline with Tween-80
# [5] = dose: 100.0 mg/kg/injection, schedule: Q01DX005 (ip), vehicle: saline with Tween-80
# [6] = dose: 200.0 mg/kg/injection, schedule: Q01DX005 (ip), vehicle: saline with Tween-80
# [7] = dose: 400.0 mg/kg/injection, schedule: Q01DX005 (ip), vehicle: saline with Tween-80
# [8] = dose: 200.0 mg/kg/injection, schedule: Q01DX009 (ip), vehicle: Klucel (hydroxypropylcellulose) (HPC)
# [9] = dose: 6.25 mg/kg/injection, schedule: Q01DX009 (ip), vehicle: water
compound,measurement,setting,value
N#CC(/C=C/c1ccccc1)Nc1ccccc1N (stereo not drawn),T/C,"dose: 200.0 mg/kg/injection, schedule: Q01DX001 (ip), vehicle: saline with Tween-80",131 % of control
CCOc1ccc2ccccc2c1C(Cc1ccccc1)NC (stereo not drawn),survivor count,[1],0 of 5
same,survivor count,[2],0 of 5
Nc1[nH]c(=S)nc2nc[nH]c12,survivor count,[3],3 of 6
same,survivor count,[4],0 of 6
same,survivor count,[5],0 of 6
same,survivor count,[6],0 of 6
O=C1c2ccccc2C(Cl)(c2ccc(Cl)cc2)c2ccc(Cl)cc21 (stereo not drawn),T/C,[4],"106, 118 (2×), 121 % of control"
same,T/C,[5],"121, 122, 131, 138 % of control"
same,T/C,[6],"124, 126, 135 % of control"
same,survivor count,[6],5 of 6
same,T/C,[7],130 % of control
same,survivor count,[7],1 of 6
same,survivor count,"dose: 800.0 mg/kg/injection, schedule: Q01DX005 (ip), vehicle: saline with Tween-80",0 of 6
CCc1cccc2c(NCCCCCCCCNc3c4ccccc4nc4c(CC)cccc34)c3ccccc3nc12,T/C,"dose: 5.0 mg/kg/injection, schedule: Q## X009 (ip), vehicle: lactic acid",130 % of control
same,T/C,"dose: 10.0 mg/kg/injection, schedule: Q01DX005 (ip), vehicle: other",127 % of control [2 of 3 alive]
same,T/C,"dose: 15.0 mg/kg/injection, schedule: Q01DX005 (ip), vehicle: other",127 % of control [2 of 3 alive]
same,survivor count,"dose: 20.0 mg/kg/injection, schedule: Q01DX005 (ip), vehicle: other",1 of 3
same,survivor count,"dose: 20.0 mg/kg/injection, schedule: Q## X009 (ip), vehicle: lactic acid",2 of 6
same,survivor count,"dose: 40.0 mg/kg/injection, schedule: Q## X009 (ip), vehicle: lactic acid",0 of 6
CC1CN1C1=C(Cl)C(=O)C(N2CC2C)=C(Cl)C1=O (stereo not drawn),T/C,"dose: 3.12 mg/kg/injection, schedule: Q01DX009 (ip), vehicle: Klucel (hydroxypropylcellulose) (HPC)",129 % of control
same,T/C,"dose: 6.25 mg/kg/injection, schedule: Q01DX009 (ip), vehicle: Klucel (hydroxypropylcellulose) (HPC)",126 and 129 % of control
same,T/C,"dose: 12.5 mg/kg/injection, schedule: Q01DX009 (ip), vehicle: Klucel (hydroxypropylcellulose) (HPC)",127 and 132 % of control
same,T/C,"dose: 25.0 mg/kg/injection, schedule: Q01DX009 (ip), vehicle: Klucel (hydroxypropylcellulose) (HPC)",129 and 139 % of control
C(=Nc1ccccc1-c1ccccc1N=Cc1ccccc1)c1ccccc1,survivor count,"dose: 3.12 mg/kg/injection, schedule: Q01DX009 (ip), vehicle: saline",6 of 6
same,survivor count,"dose: 12.5 mg/kg/injection, schedule: Q01DX009 (ip), vehicle: saline with Tween-80",6 of 6
same,survivor count,"dose: 50.0 mg/kg/injection, schedule: Q01DX009 (ip), vehicle: saline",5 of 6
C=C1C(=O)OC2CC1C(O)C/C(C)=C/CC/C(C)=C/C(O)CC2C (stereo not drawn),survivor count,"dose: 50.0 mg/kg/injection, schedule: Q01DX009 (ip), vehicle: Klucel (hydroxypropylcellulose) (HPC)",6 of 6
same,survivor count,"dose: 100.0 mg/kg/injection, schedule: Q01DX009 (ip), vehicle: Klucel (hydroxypropylcellulose) (HPC)",0 of 6
same,survivor count,[8],0 of 6
O=[Se](OCC(F)(F)F)OCC(F)(F)F,survivor count,"dose: 12.5 mg/kg/injection, schedule: Q01DX001 (ip), vehicle: saline",0 of 6
same,survivor count,"dose: 25.0 mg/kg/injection, schedule: Q01DX001 (ip), vehicle: saline",0 of 6
same,survivor count,"dose: 50.0 mg/kg/injection, schedule: Q01DX001 (ip), vehicle: saline",0 of 6
same,survivor count,"dose: 100.0 mg/kg/injection, schedule: Q01DX001 (ip), vehicle: saline",0 of 6
same,survivor count,"dose: 200.0 mg/kg/injection, schedule: Q01DX001 (ip), vehicle: saline",0 of 6
O=C(O)/C(O)=C/c1ccccc1,survivor count,"dose: 50.0 mg/kg/injection, schedule: Q04DX003 (ip), vehicle: saline with Tween-80",3 of 6
same,survivor count,"dose: 100.0 mg/kg/injection, schedule: Q04DX003 (ip), vehicle: saline with Tween-80",2 of 6 and 4 of 6
same,survivor count,"dose: 400.0 mg/kg/injection, schedule: Q04DX003 (ip), vehicle: saline with Tween-80",1 of 6
O=C(O)CSc1ccc2c3c(cccc13)C(=O)c1ccccc1-2,survivor count,"dose: 25.0 mg/kg/injection, schedule: Q01DX009 (ip), vehicle: saline",3 of 6
[N-]=[N+]=NC(=O)c1cnn(-c2ccccc2)c1N,survivor count,"dose: 120.0 mg/kg/injection, schedule: Q01DX005 (ip), vehicle: saline with Tween-80",0 of 6
same,survivor count,"dose: 240.0 mg/kg/injection, schedule: Q01DX005 (ip), vehicle: saline with Tween-80",0 of 6
CCOCC(=O)[C@]1(O)Cc2c(O)c3c(c(O)c2[C@@H](OC2CC(N)C(O)C(C)O2)C1)C(=O)c1c(OC)cccc1C3=O (stereo partly drawn),T/C,"dose: 0.78 mg/kg/injection, schedule: Q01DX009 (ip), vehicle: water",137 % of control
same,T/C,"dose: 1.56 mg/kg/injection, schedule: Q01DX009 (ip), vehicle: water",144 % of control
same,T/C,[9],146 % of control
same,survivor count,[9],6 of 6
same,survivor count,"dose: 12.5 mg/kg/injection, schedule: Q01DX009 (ip), vehicle: water",4 of 6 and 6 of 6
same,survivor count,"dose: 25.0 mg/kg/injection, schedule: Q01DX009 (ip), vehicle: water",2 of 6
N#CN(Cc1ccccc1)C(c1ccccc1)(c1ccccc1)c1ccccc1.[Br][Sn]([c]1ccccc1)([c]1ccccc1)[c]1ccccc1,survivor count,"dose: 12.5 mg/kg/injection, schedule: Q01DX005 (ip), vehicle: saline with Tween-80",5 of 6
same,survivor count,[3],3 of 6
same,survivor count,[4],3 of 6
same,survivor count,[5],0 of 6
same,survivor count,[6],0 of 6
C#CCN(C)/N=N/c1nc[nH]c1C(N)=O,survivor count,[8],5 of 6
Cc1cc(NCCCCCCNc2cc(C)nc3cc(N(C)C)ccc23)c2ccc(N(C)C)cc2n1,T/C,"dose: 3.12 mg/kg/injection, schedule: Q01DX009 (ip), vehicle: distilled water + Tween-80 + alcohol",130 % of control
same,T/C,"dose: 6.25 mg/kg/injection, schedule: Q01DX009 (ip), vehicle: distilled water + Tween-80 + alcohol",127 % of control [4 of 6 alive]
same,survivor count,"dose: 50.0 mg/kg/injection, schedule: Q01DX009 (ip), vehicle: distilled water + Tween-80 + alcohol",3 of 6 and 6 of 6
same,survivor count,"dose: 100.0 mg/kg/injection, schedule: Q01DX009 (ip), vehicle: distilled water + Tween-80 + alcohol",2 of 6
same,survivor count,"dose: 200.0 mg/kg/injection, schedule: Q01DX009 (ip), vehicle: distilled water + Tween-80 + alcohol",0 of 6
COc1ccc2nc(C)c3c(c2c1)C(=O)N(CCCN1CCN(CCCN2C(=O)c4c(C)nc5ccc(OC)cc5c4C2=O)CC1)C3=O,survivor count,"dose: 50.0 mg/kg/injection, schedule: Q01DX005 (ip), vehicle: Klucel (hydroxypropylcellulose) (HPC)",6 of 6
same,survivor count,[1],6 of 6
same,survivor count,[2],6 of 6
NC(=S)N/N=C/C1=C(Cl)c2ccccc2C1,survivor count,[3],0 of 6
same,survivor count,[4],0 of 6
same,survivor count,[5],0 of 6
same,survivor count,[6],0 of 6
CCN(Cc1cccc(S(=O)(=O)O)c1)c1ccc(C(=C2C=CC(=[N+](CC)Cc3cccc(S(=O)(=O)O)c3)C=C2)c2ccccc2)cc1,survivor count,"dose: 400.0 mg/kg/injection, schedule: Q01DX005 (ip), vehicle: saline",1 of 6
[NH-]CC(=O)O.[NH-]CC(=O)O.[Pt+2],T/C,"dose: 25.0 mg/kg/injection, schedule: Q01DX009 (ip), vehicle: distilled water + Tween-80",126 % of control
same,T/C,"dose: 50.0 mg/kg/injection, schedule: Q01DX009 (ip), vehicle: water",133 % of control
same,T/C,"dose: 100.0 mg/kg/injection, schedule: Q01DX009 (ip), vehicle: water",138 % of control
same,survivor count,"dose: 400.0 mg/kg/injection, schedule: Q01DX009 (ip), vehicle: distilled water + Tween-80",6 of 6
Cc1cccc(/C=N/Nc2nc3ccccc3s2)n1,survivor count,[3],6 of 6
same,survivor count,[4],6 of 6
same,survivor count,[5],6 of 6

# Reference: PubChem BioAssay AID330 (DTP/NCI, 2004)
